Literature values as cited in patent publication US10583210B2, “Auger electron therapy for glioblastoma” (Syddansk Universitet, priority 2014, dated 2020).
For at least one compound, name, drawing or mass did not settle the structure.

Test system: U87MG
Conditions: same TMZ dose-regimen as present study; cited from earlier work

Cn1nnc2c(C(N)=O)ncn2c1=O [TMZ, temozolomide]
increase in maximum survival: 2.9 fold
long-term survivors: no animal became a long-term survivors
